We go through 52 compounds from the supplement of paper PMC3682954.

Where a name gives a salt, the structure may show the parent alone. ± gives the standard deviation of the averaged measurements. The list shows a part of the results. Repeats are few or missing, and single values can be far off.

The subject of this experiment is RAW 264.7. Put plainly: HMGB1-induced TNF-alpha production relative to HMGB1-stimulated control; higher = more TNF-alpha secretion (less inhibition). Particulars: stimulus: HMGB1 5 ug/ml, 18 h.
[1] abbreviates: compound concentration: 1 ug/ml.

With `CC1(C)OC(=O)C(OCC2CC2)=C1c1ccc(S(C)(=O)=O)cc1`, the “HMGB1-induced TNF-alpha production” value (compound concentration: 3 uM) was found to be 88.2%.

In the case of `COc1ccc([C@@H]2CC(=O)c3c(O)cc(O)cc3O2)cc1O` [Hesperetin], the “HMGB1-induced TNF-alpha production” value under setting [1] came out at 74.7%.

For `CN(C)CCCN1c2ccccc2Sc2ccc(C(F)(F)F)cc21`, under “compound concentration: 3 uM”, the “HMGB1-induced TNF-alpha production” value came out at 86.9%.

On to `CN(C)CCCN1c2ccccc2Sc2ccc(C(F)(F)F)cc21` [Triflupromazine hydrochloride], for which the “HMGB1-induced TNF-alpha production” value (compound concentration: 3 uM) was determined as 89.9 ± 30%.

Consider `COc1ccc2c(c1)CCC1C2CCC2(C)C(NCCCCCCN3C(=O)C=CC3=O)CCC12` (stereo not drawn), for which the “HMGB1-induced TNF-alpha production” value (compound concentration: 3 uM) is 87.6%.

In the case of `COc1cc(C(=O)OCCCN2CCCN(CCCOC(=O)c3cc(OC)c(OC)c(OC)c3)CC2)cc(OC)c1OC` [Dilazep], the “HMGB1-induced TNF-alpha production” value (compound concentration: 3 uM) came to 84%.

Consider `COc1cc(C(=O)OCCCN2CCCN(CCCOC(=O)c3cc(OC)c(OC)c(OC)c3)CC2)cc(OC)c1OC` [Dilazep hydrochloride], for which the “HMGB1-induced TNF-alpha production” value (compound concentration: 3 uM) was found to be 69.8%.

For the compound `COc1cc(C(=O)OCCCN2CCCN(CCCOC(=O)c3cc(OC)c(OC)c(OC)c3)CC2)cc(OC)c1OC` [Dilazep dihydrochloride], the “HMGB1-induced TNF-alpha production” value (compound concentration: 3 uM) is 90.4%.

In the case of `N=C(NC(=O)c1nc(Cl)c(N)nc1N)Nc1ccccc1` [Phenamil methanesulfonate], where the note is “compound concentration: 3 uM”, the “HMGB1-induced TNF-alpha production” value came to 101%.

In the case of `N=C(NC(=O)c1nc(Cl)c(N)nc1N)Nc1ccccc1` [Phenamil], the “HMGB1-induced TNF-alpha production” value (compound concentration: 3 uM) was found to be 82.5%.

With `CC[N+](C)(CC)CCOC(=O)C(O)(c1ccccc1)C1CCCCC1` (stereo not drawn), for the setting “compound concentration: 3 uM”, the “HMGB1-induced TNF-alpha production” value was determined as 89.9 ± 10%.

Consider `C/C=C/C(=O)OCC1OC(Oc2cc(O)c3c(=O)cc(-c4ccc(O)c(OC)c4)oc3c2)C(O)C(O)C1O` (stereo not drawn) [Thermopsoside, crotonoyl], for which, under setting [1], the “HMGB1-induced TNF-alpha production” value was found to be 93.7%.

Turning to `O=C1c2c(O)cccc2Cc2cccc(O)c21` [Anthralin], the “HMGB1-induced TNF-alpha production” value (compound concentration: 3 uM) stood at 114%.

For the compound `O=C1c2c(O)cccc2Cc2cccc(O)c21`, the “HMGB1-induced TNF-alpha production” value (compound concentration: 3 uM) was determined as 73.9%.

On to `C#CC(N)CCC(=O)O` (stereo not drawn) [gamma-Acetylinic GABA], for which the “HMGB1-induced TNF-alpha production” value (compound concentration: 3 uM) came to 99.6%.

For the compound `O=S(=O)(O)c1cc(N=C=S)ccc1/C=C/c1ccc(N=C=S)cc1S(=O)(=O)O`, where the note is “compound concentration: 3 uM”, the “HMGB1-induced TNF-alpha production” value is 118%.

On to `C[Si](C)(C)c1cn([C@H]2C[C@H](O)[C@@H](CO)O2)c(=O)[nH]c1=O` [Xylure], for which the “HMGB1-induced TNF-alpha production” value under setting [1] was found to be 76.9%.

As for `NS(=O)(=O)c1cc2c(cc1Cl)NCNS2(=O)=O` [Hydrochlorothiazide], the “HMGB1-induced TNF-alpha production” value (compound concentration: 3 uM) worked out at 81.7 ± 1.1%.

For the compound `NS(=O)(=O)c1cc2c(cc1Cl)NCNS2(=O)=O`, the “HMGB1-induced TNF-alpha production” value (compound concentration: 3 uM) is 86%.

As to `C[N+]1(C)CCC(=C(c2ccccc2)c2ccccc2)CC1` [Diphemanil methylsulfate], for the setting “compound concentration: 3 uM”, the “HMGB1-induced TNF-alpha production” value came to 71.8%.

Regarding `COc1cc(/C=C/C(=O)O)ccc1O`, the “HMGB1-induced TNF-alpha production” value (compound concentration: 3 uM) was 106%.

As for `CN(C)CCc1c[nH]c2ccc(C[C@H]3COC(=O)N3)cc12`, the “HMGB1-induced TNF-alpha production” value (compound concentration: 3 uM) is 87.3%.

Turning to `CN(C)CCc1c[nH]c2ccc(C[C@H]3COC(=O)N3)cc12` [Zolmitriptan], the “HMGB1-induced TNF-alpha production” value (compound concentration: 3 uM) is 111 ± 6%.

`CN(C)CCC=C1c2ccccc2C=Cc2ccccc21`: the “HMGB1-induced TNF-alpha production” value (compound concentration: 3 uM) was 87.3%.

For the compound `CN(C)CCC=C1c2ccccc2C=Cc2ccccc21` [Cyclobenzaprine hydrochloride], the “HMGB1-induced TNF-alpha production” value (compound concentration: 3 uM) was determined as 64.8 ± 14%.

In the case of `O=c1[nH]c(=O)n([C@H]2C[C@H](O)[C@@H](CO)O2)cc1F`, the “HMGB1-induced TNF-alpha production” value (compound concentration: 3 uM) was 103 ± 5%.

Regarding `O=c1[nH]c(=O)n([C@H]2C[C@H](O)[C@@H](CO)O2)cc1F` [Floxuridine], the “HMGB1-induced TNF-alpha production” value (compound concentration: 3 uM) stood at 98.5 ± 1.1%.

For the compound `CNNCc1ccc(C(=O)NC(C)C)cc1` [Procarbazine], the “HMGB1-induced TNF-alpha production” value (compound concentration: 3 uM) turned out to be 92.2%.

With `CNNCc1ccc(C(=O)NC(C)C)cc1` [Procarbazine hydrochloride], the “HMGB1-induced TNF-alpha production” value (compound concentration: 3 uM) amounted to 125%.

As to `CNNCc1ccc(C(=O)NC(C)C)cc1`, for the setting “compound concentration: 3 uM”, the “HMGB1-induced TNF-alpha production” value worked out at 101%.

Turning to `Nc1ccc(C(=O)Oc2ccccc2)c(O)c1`, the “HMGB1-induced TNF-alpha production” value (compound concentration: 3 uM) amounted to 84%.

As for `COc1cc(C)c(/C=C/C(C)=C/C=C/C(C)=C/C(=O)O)c(C)c1C` [Acitretin], the “HMGB1-induced TNF-alpha production” value (compound concentration: 3 uM) stood at 89.4%.

In the case of `CC(C)OC(=O)CCC/C=C\C[C@@H]1[C@@H](CC[C@@H](O)CCc2ccccc2)[C@H](O)C[C@@H]1O`, the “HMGB1-induced TNF-alpha production” value (compound concentration: 3 uM) worked out at 88.9%.

Regarding `CC(C)OC(=O)CCC/C=C\C[C@@H]1[C@@H](CC[C@@H](O)CCc2ccccc2)[C@H](O)C[C@@H]1O` [Latanoprost], for the setting “compound concentration: 3 uM”, the “HMGB1-induced TNF-alpha production” value is 103%.

Turning to `O=C(O)c1cc(O)c2c(c1)[C@H]([C@H]1c3cc(C(=O)O)cc(O)c3C(=O)c3c(O[C@@H]4O[C@H](CO)[C@@H](O)[C@H](O)[C@H]4O)cccc31)c1cccc(O[C@@H]3O[C@H](CO)[C@@H](O)[C@H](O)[C@H]3O)c1C2=O`, under “compound concentration: 3 uM”, the “HMGB1-induced TNF-alpha production” value came out at 73.4%.

Regarding `CC(=O)Oc1cc(C(C)C)c(OCCN(C)C)cc1C` [Moxisylyte hydrochoride], the “HMGB1-induced TNF-alpha production” value (compound concentration: 3 uM) amounted to 59.9%.

With `CC(=O)Oc1cc(C(C)C)c(OCCN(C)C)cc1C`, under “compound concentration: 3 uM”, the “HMGB1-induced TNF-alpha production” value worked out at 80.4%.

For `CC(=O)Oc1cc(C(C)C)c(OCCN(C)C)cc1C` [Moxisylyte hydrochloride], the “HMGB1-induced TNF-alpha production” value (compound concentration: 3 uM) came out at 103%.

Regarding `CC(c1cc2ccccc2s1)N(O)C(N)=O` (stereo not drawn) [Zileuton], under “compound concentration: 3 uM”, the “HMGB1-induced TNF-alpha production” value came to 101 ± 12%.

For `CC(c1cc2ccccc2s1)N(O)C(N)=O` (stereo not drawn), under “compound concentration: 3 uM”, the “HMGB1-induced TNF-alpha production” value amounted to 96.1 ± 22%.

For the compound `C[C@@H]1C(=O)O[C@H]2C[C@@]34[C@H]5C[C@@H](C(C)(C)C)[C@]36[C@@H](OC(=O)[C@@H]6O)O[C@@]4(C(=O)O5)[C@]21O` [Ginkgolide A], the “HMGB1-induced TNF-alpha production” value runs as follows: under setting [1], 76.3%; (compound concentration: 3 uM) 108%.

As for `CC1=C(/C=C/C(C)=C/C=C/C(C)=C/C(=O)Nc2ccc(O)cc2)C(C)(C)CCC1` [Fenretinide], the “HMGB1-induced TNF-alpha production” value (compound concentration: 3 uM) is 90.2%.

In the case of `CC1=C(/C=C/C(C)=C/C=C/C(C)=C/C(=O)Nc2ccc(O)cc2)C(C)(C)CCC1` [Retinoic acid p-hydroxyanilide], the “HMGB1-induced TNF-alpha production” value (compound concentration: 3 uM) was found to be 103%.

As to `CC1=C(/C=C/C(C)=C/C=C/C(C)=C/C(=O)Nc2ccc(O)cc2)C(C)(C)CCC1`, the “HMGB1-induced TNF-alpha production” value (compound concentration: 3 uM) worked out at 81.8%.

As to `CCC(=O)O[C@H]1[C@H](O[C@@H]2[C@@H](C)[C@H](O[C@H]3C[C@@](C)(OC)[C@@H](O)[C@H](C)O3)[C@@H](C)C(=O)O[C@H](CC)[C@@](C)(O)[C@H](O)[C@@H](C)C(=O)[C@H](C)C[C@@]2(C)O)O[C@H](C)C[C@@H]1N(C)C`, under “compound concentration: 3 uM”, the “HMGB1-induced TNF-alpha production” value was determined as 97.5%.

As for `Nc1ncnc2c1ncn2[C@@H]1O[C@H](COP(=O)(O)O)[C@@H](O)[C@H]1O`, where the note is “compound concentration: 3 uM”, the “HMGB1-induced TNF-alpha production” value turned out to be 88.7%.

Regarding `C#C[C@]1(O)CC[C@H]2[C@@H]3[C@H](C)CC4=C(CCC(=O)C4)[C@H]3CC[C@@]21C`, for the setting “compound concentration: 3 uM”, the “HMGB1-induced TNF-alpha production” value is 96.2%.

On to `C#C[C@]1(O)CC[C@H]2[C@@H]3[C@H](C)CC4=C(CCC(=O)C4)[C@H]3CC[C@@]21C` [Tibolone], for which, for the setting “compound concentration: 3 uM”, the “HMGB1-induced TNF-alpha production” value stood at 74.1 ± 14%.

`Cn1cc(C(=O)OCC2CCN(CCNS(C)(=O)=O)CC2)c2ccccc21`: the “HMGB1-induced TNF-alpha production” value (compound concentration: 3 uM) was determined as 83%.

`S=C=Nc1ccc(N=C=S)cc1`: where the note is “compound concentration: 3 uM”, the “HMGB1-induced TNF-alpha production” value amounted to 73.7%.

In the case of `O=c1cc(-c2ccccc2O)oc2cc(O)cc(O)c12` [5,7,2'-Trihydroxyflavone], under setting [1], the “HMGB1-induced TNF-alpha production” value is 59.2%.

For the compound `CCCCC(=O)O[C@]1(C(=O)CO)[C@@H](C)C[C@H]2[C@@H]3CCC4=CC(=O)C=C[C@]4(C)[C@@]3(F)[C@@H](O)C[C@@]21C`, for the setting “compound concentration: 3 uM”, the “HMGB1-induced TNF-alpha production” value turned out to be 43.7%.
